Assay results: PubChem BioAssay AID540276 (National Center for Advancing Translational Sciences (NCATS), 2011)
Screen size: about 300,000 compounds; about 5,400 (1.8%) were called active. The shares of active, inactive and inconclusive entries below differ from those in the screen. The call rests on the fitted dose curve; tested in HEK293 cells. Potencies of inconclusive entries are doubtful fits and often do not repeat.

assay: qHTS for inhibitors of binding or entry into cells for Marburg Virus; details: Marburg virus pseudotyped entry inhibition, cell reporter; series mostly up to 37.8 µM
Potency means the concentration at half of the fitted maximal effect.

**Q.** For `O=C(O)C(Cc1ccccc1)n1cccc1` (configuration not stated), which Potency is on record?
**A.** inconclusive: 3.16 µM [activator, full curve, poor fit]

**Q.** With `CCc1cccc(C)c1Nc1c(-c2cccc(O)c2)nc2nc(C)cc(C)n12` as the compound, how does the Potency read?
**A.** inactive

**Q.** For `Cc1ccc(S(=O)(=O)NCC(=O)OCc2nnc(-c3ccccc3)o2)cc1C`, which Potency is on record?
**A.** inconclusive: 31.6 µM [activator, single point]

**Q.** With `Cc1ccc(-c2nnc(SCC(=O)N3CCN(c4ccccc4)CC3)o2)cc1` as the compound, how does the Potency read?
**A.** inconclusive: 35.5 µM [inhibitor, single point]

**Q.** Which Potency does the source give for `Cc1ccc(/C=N/NC(=O)CC(=O)NCc2cccnc2)cc1` here?
**A.** inconclusive: 0.355 µM [activator, partial curve, poor fit]

**Q.** Which Potency does the source give for `CC1(C)Cc2ccccc2-c2nnc(-c3ccc(O)cc3)n21` here?
**A.** inconclusive: 0.0891 µM [inhibitor, full curve, poor fit]

**Q.** With `COc1cc(-c2nnc(-c3ccccc3)o2)cc(OC)c1OC` as the compound, how does the Potency read?
**A.** inconclusive: 22.4 µM [inhibitor, partial curve, poor fit]

**Q.** For `O=[N+]([O-])c1ccc(N2CCN(C(=S)NC3CCCCC3)CC2)cc1`, which Potency is on record?
**A.** inconclusive: 31.6 µM [inhibitor, partial curve, poor fit]

**Q.** With `CC1=C(C(=O)Nc2ccc(Cl)cc2)C(c2ccc(C(F)(F)F)cc2)n2nnnc2N1` (configuration not stated) as the compound, how does the Potency read?
**A.** inactive

**Q.** With `O=C(COC(=O)c1ccc(F)c(S(=O)(=O)N2CCCCC2)c1)NCc1ccc(F)cc1` as the compound, how does the Potency read?
**A.** inactive

**Q.** Which Potency does the source give for `COc1ccc(C(=O)c2ccccc2Cl)cc1OC` here?
**A.** inconclusive: 3.16 µM [activator, partial curve, poor fit]

**Q.** Which Potency does the source give for `CCc1cccc2c(C(=O)C(NC(C)CC)c3ccccc3)c[nH]c12` (configuration not stated) here?
**A.** active: 11.6 µM

**Q.** With `COc1ccc2nc(-c3ccccc3)[nH]c2c1` as the compound, how does the Potency read?
**A.** inconclusive: 13 µM [inhibitor, single point]

**Q.** For `COc1ccc(Cl)cc1NC(=O)CSc1nnc(-c2ccco2)o1`, which Potency is on record?
**A.** inconclusive: 10 µM [activator, partial curve, poor fit]

**Q.** With `CC(C)c1ccc(C(=O)NC(=S)Nc2ccc3[nH]c(=O)[nH]c3c2)cc1` as the compound, how does the Potency read?
**A.** inconclusive: 5.62 µM [inhibitor, single point]

**Q.** With `c1ccc(CN2C3=NCCCN3c3ccccc32)cc1` as the compound, how does the Potency read?
**A.** inconclusive: 22.4 µM [inhibitor, single point]

**Q.** With `Cc1ccc(CN=C2Nc3ccccc3CS2)cc1` as the compound, how does the Potency read?
**A.** inconclusive: 0.73 µM [activator, partial curve, poor fit]

**Q.** For `COC(=O)N/N=C/c1cc(C)n(-c2ccc(F)cc2)c1C`, which Potency is on record?
**A.** inactive

**Q.** For `Cc1ccc(N(C(=O)Cn2nnc(-c3ccc(C)o3)n2)C(C(=O)NC2CCCC2)c2ccco2)cc1` (configuration not stated), which Potency is on record?
**A.** inconclusive: 23.1 µM [inhibitor, single point]

**Q.** With `Cc1ccc2cc(CN(Cc3ccc4c(c3)OCO4)Cc3nnnn3Cc3ccco3)c(=O)[nH]c2c1C` as the compound, how does the Potency read?
**A.** inconclusive: 11.2 µM [inhibitor, partial curve]

**Q.** Which Potency does the source give for `COc1cc(CNCCCN2CCOCC2)ccc1OCC(=O)Nc1cccc(C(F)(F)F)c1` here?
**A.** inconclusive: 9.2 µM [inhibitor, single point]

**Q.** Which Potency does the source give for `O=C(Nc1cc(Br)ccc1O)c1cnn2c(C(F)F)cc(C3CC3)nc12` here?
**A.** inconclusive: 5.62 µM [inhibitor, full curve, poor fit]

**Q.** With `CCCN1C2CCCC1CC(NC(=O)c1cccc(Cl)c1)C2` (configuration not stated) as the compound, how does the Potency read?
**A.** inconclusive: 0.708 µM [activator, single point]

**Q.** For `Cc1ccc(-n2c(SCC(=O)NCC3CCCO3)nc3n[nH]c(C)c3c2=N)cc1Cl` (configuration not stated), which Potency is on record?
**A.** inconclusive: 35.5 µM [inhibitor, partial curve, poor fit]

**Q.** Which Potency does the source give for `O=C(NCCC(=O)N(CCc1ccccc1)Cc1ccccc1)c1ccccc1Cl` here?
**A.** inconclusive: 35.5 µM [inhibitor, single point]

**Q.** With `Cc1nc(N2CCOCC2)c2c(C)c(C(=O)Nc3ccc(C(F)(F)F)cc3)sc2n1` as the compound, how does the Potency read?
**A.** inconclusive: 17.8 µM [inhibitor, single point]

**Q.** Which Potency does the source give for `COc1ccc(NC(=O)CSc2nccn2Cc2ccco2)c(OC)c1` here?
**A.** inconclusive: 31.6 µM [activator, single point]

**Q.** Which Potency does the source give for `O=C(OCc1cn([C@H]2C[C@H](c3ccccc3)N(CC3CCCCC3)C[C@H]2O)nn1)c1ccccc1` here?
**A.** inconclusive: 0.0031 µM [inhibitor, full curve, poor fit]

**Q.** Which Potency does the source give for `c1ccc(Cc2nnc3sc(-c4cccnc4)nn23)cc1` here?
**A.** inactive

**Q.** For `CSc1ccc(/C=C(/Sc2nnc(-c3ccccc3)o2)C(=O)O)cc1`, which Potency is on record?
**A.** inactive

**Q.** Which Potency does the source give for `Cc1ccc(N=C2NC(=O)/C(=C/c3cccn3C)S2)cc1C` here?
**A.** inconclusive: 22.4 µM [inhibitor, single point]

**Q.** For `Cc1ccc(Cn2ccc(NC(=O)c3nn(C)cc3[N+](=O)[O-])n2)cc1`, which Potency is on record?
**A.** inconclusive: 3.55 µM [inhibitor, single point]

**Q.** Which Potency does the source give for `Cc1nonc1NC(=O)CSc1nc2cc(Cl)ccc2c2c1CCCC2` here?
**A.** inconclusive: 25.9 µM [inhibitor, single point]

**Q.** For `Cc1ccc(-c2noc(CN(C)C(=O)c3ccoc3C)n2)cc1`, which Potency is on record?
**A.** inactive

**Q.** Which Potency does the source give for `Cc1ccc(N=Nc2c(C)[nH][nH]c2=O)c(C)c1` here?
**A.** inconclusive: 7.3 µM [inhibitor, partial curve, poor fit]

**Q.** Which Potency does the source give for `CCc1ccc(-c2cc(C)no2)cc1S(=O)(=O)N1CCN(c2ccccc2OC)CC1` here?
**A.** inconclusive: 35.5 µM [inhibitor, single point]

**Q.** Which Potency does the source give for `O=C(N/N=C/c1ccc([N+](=O)[O-])s1)c1cccc(Br)c1` here?
**A.** inconclusive: 7.3 µM [inhibitor, full curve, poor fit]

**Q.** With `O=C(COC(=O)C12CC3CC(CC(C3)C1)C2)NCCc1ccccc1` as the compound, how does the Potency read?
**A.** inactive

**Q.** With `O=C(NN1C(=O)C2C(C1=O)C1C=CC2C12CC2)c1ccncc1` (configuration not stated) as the compound, how does the Potency read?
**A.** inactive

**Q.** For `Cc1ccccc1OCC(=O)NCC(=O)OCc1ccc(Br)cc1`, which Potency is on record?
**A.** inconclusive: 17.8 µM [activator, partial curve, poor fit]

**Q.** Which Potency does the source give for `CCc1ccc(S(=O)(=O)c2c(C(=O)c3ccccc3)cnc3ccc(CC)cc23)cc1` here?
**A.** inconclusive: 20 µM [inhibitor, partial curve, poor fit]

**Q.** For `CCc1ccccc1Nc1ccc(C(=O)O)cc1N`, which Potency is on record?
**A.** inconclusive: 2.82 µM [activator, partial curve, poor fit]

**Q.** For `CCOCCCNC(=O)c1c(NC(=O)Cc2coc3ccc(C)cc23)sc2c1CCC2`, which Potency is on record?
**A.** inconclusive: 1.12 µM [activator, partial curve, poor fit]

**Q.** Which Potency does the source give for `COc1ccccc1NC(=O)C(=O)NCCC1CCCCN1S(=O)(=O)c1cccs1` (configuration not stated) here?
**A.** inconclusive: 25.1 µM [inhibitor, single point]

**Q.** For `CCN(CC)CCCNC(=O)CN1N=C(c2ccc(OC)cc2)CCC1=O`, which Potency is on record?
**A.** inactive

**Q.** With `O=Cc1c(NCCCN2CCCC2=O)c2ccccc2[nH]c1=O` as the compound, how does the Potency read?
**A.** inconclusive: 0.891 µM [inhibitor, single point]

**Q.** Which Potency does the source give for `Cc1nc(N2CCN(S(=O)(=O)c3ccc(F)cc3)CC2)c2c(C)c(C)sc2n1` here?
**A.** inactive

**Q.** With `Cc1ccc(-n2nnnc2SCC(=O)Nc2c(C)n(C)n(-c3ccccc3)c2=O)cc1` as the compound, how does the Potency read?
**A.** inactive

**Q.** Which Potency does the source give for `C=CCn1c(SCC(=O)Nc2nc3ccccc3s2)nc(O)c(CC)c1=O` here?
**A.** inconclusive: 3.16 µM [inhibitor, partial curve, poor fit]

**Q.** Which Potency does the source give for `COC(=O)[C@@]1(C=C2c3ccc(F)cc3[C@@H](OC)[C@@H]2C)[C@@H]2C=CC[C@@H]21` here?
**A.** inactive

**Q.** For `O=C(CCl)N(c1ccccc1)C1CCCCC1`, which Potency is on record?
**A.** inconclusive: 2.82 µM [inhibitor, full curve, poor fit]

**Q.** For `O=c1[nH]c(=S)[nH]c(O)c1N=Nc1ccc2c(c1)OCO2`, which Potency is on record?
**A.** inconclusive: 14.1 µM [inhibitor, single point]

**Q.** With `Cc1csc(NC(=O)c2ccc(C)s2)n1` as the compound, how does the Potency read?
**A.** inconclusive: 35.5 µM [inhibitor, single point]

**Q.** With `O=C(C1=C(O)C(=O)N(CCN2CCOCC2)C1c1ccc([N+](=O)[O-])cc1)c1cccs1` (configuration not stated) as the compound, how does the Potency read?
**A.** inactive

**Q.** With `CN1CCC(OC(=O)c2cccc(Br)c2)CC1` as the compound, how does the Potency read?
**A.** inconclusive: 29.1 µM [inhibitor, single point]

**Q.** Which Potency does the source give for `O=C(CSc1nnc(CNC(=O)c2c(F)cccc2Cl)o1)NCc1ccc(F)cc1` here?
**A.** inconclusive: 35.5 µM [activator, single point]

**Q.** For `Cc1cc(N/N=C/c2ccc(O)c(C)c2O)nc(-c2ccccc2O)n1`, which Potency is on record?
**A.** inconclusive: 35.5 µM [inhibitor, single point]

**Q.** For `Nn1c(SCc2cc([N+](=O)[O-])cc3c2OCOC3)nnc1-c1cccnc1`, which Potency is on record?
**A.** inconclusive: 5.62 µM [inhibitor, single point]

**Q.** For `O=C(NCc1ccccn1)c1ccc(Cl)s1`, which Potency is on record?
**A.** inconclusive: 32.6 µM [activator, single point]

**Q.** With `COc1ccc(N2C(=O)CC(Sc3ncn[nH]3)C2=O)c(OC)c1` (configuration not stated) as the compound, how does the Potency read?
**A.** inactive

**Q.** Which Potency does the source give for `O=Cc1cn(Cc2cccc([N+](=O)[O-])c2)c2ccccc12` here?
**A.** active: 0.82 µM

**Q.** With `O=C(Cc1ccccc1)N[C@H](c1ccccc1)P(=O)(O)CO` as the compound, how does the Potency read?
**A.** inconclusive: 31.6 µM [activator, partial curve, poor fit]

**Q.** Which Potency does the source give for `CC(C)(C)C(=O)n1nc(-c2ccccc2)oc1=O` here?
**A.** inactive

**Q.** Which Potency does the source give for `Cc1ccc(C(=O)CC(=O)c2cccc(F)c2)c(O)c1` here?
**A.** inconclusive: 20.6 µM [inhibitor, single point]

**Q.** With `O=C(CCCN1C(=O)/C(=C\c2cccs2)SC1=S)Nc1ccccn1` as the compound, how does the Potency read?
**A.** inactive

**Q.** For `C[C@H]1COc2c(N3CCN(C)CC3)c(F)cc3c(=O)c(C(=O)NCc4ccco4)cn1c23`, which Potency is on record?
**A.** inconclusive: 1.19 µM [inhibitor, single point]

**Q.** With `CC(C)(C)c1ccc(C(=O)N/C(=C\c2cccs2)C(=O)NCc2ccco2)cc1` as the compound, how does the Potency read?
**A.** inactive
